In the M2OR odorant receptor database:
Where a chain is given by its changes, count along the chain named. The list shows a part of the results, in another mix than the full data. Calls are pooled over several reports, among them a noisy single-well screen. The list shows a part of the results. Some of the results follow.

Chains of the proteins cited; added tags and fusions are not shown. Lines headed by an entry give the natural chain unless they say otherwise; changes in a name come on top.
UniProt Q8NH02: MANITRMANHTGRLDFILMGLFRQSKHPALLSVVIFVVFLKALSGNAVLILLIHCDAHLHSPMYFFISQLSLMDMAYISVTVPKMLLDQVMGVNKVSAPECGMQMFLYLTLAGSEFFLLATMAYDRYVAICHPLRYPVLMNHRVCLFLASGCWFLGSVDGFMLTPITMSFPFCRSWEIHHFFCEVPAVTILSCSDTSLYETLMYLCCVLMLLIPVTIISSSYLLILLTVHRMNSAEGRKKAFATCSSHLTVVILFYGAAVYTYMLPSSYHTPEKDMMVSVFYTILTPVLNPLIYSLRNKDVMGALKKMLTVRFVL
UniProt Q6IEZ7: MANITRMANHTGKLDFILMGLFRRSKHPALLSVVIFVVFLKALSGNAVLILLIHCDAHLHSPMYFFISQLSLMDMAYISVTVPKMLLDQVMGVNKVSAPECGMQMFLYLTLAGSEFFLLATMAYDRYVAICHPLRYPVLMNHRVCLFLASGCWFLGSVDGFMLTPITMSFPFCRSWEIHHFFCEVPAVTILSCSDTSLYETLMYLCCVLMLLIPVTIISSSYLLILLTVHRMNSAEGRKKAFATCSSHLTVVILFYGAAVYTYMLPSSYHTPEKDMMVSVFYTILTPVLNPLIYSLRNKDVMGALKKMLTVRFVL
UniProt Q8NHC8: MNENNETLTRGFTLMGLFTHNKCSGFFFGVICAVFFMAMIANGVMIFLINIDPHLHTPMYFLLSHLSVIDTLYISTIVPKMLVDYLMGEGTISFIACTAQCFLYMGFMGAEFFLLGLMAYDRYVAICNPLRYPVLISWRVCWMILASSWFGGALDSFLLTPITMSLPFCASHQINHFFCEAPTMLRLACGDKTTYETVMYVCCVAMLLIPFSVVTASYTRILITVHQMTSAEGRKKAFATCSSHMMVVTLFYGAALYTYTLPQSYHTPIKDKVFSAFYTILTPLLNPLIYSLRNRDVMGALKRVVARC
UniProt P0C7T2: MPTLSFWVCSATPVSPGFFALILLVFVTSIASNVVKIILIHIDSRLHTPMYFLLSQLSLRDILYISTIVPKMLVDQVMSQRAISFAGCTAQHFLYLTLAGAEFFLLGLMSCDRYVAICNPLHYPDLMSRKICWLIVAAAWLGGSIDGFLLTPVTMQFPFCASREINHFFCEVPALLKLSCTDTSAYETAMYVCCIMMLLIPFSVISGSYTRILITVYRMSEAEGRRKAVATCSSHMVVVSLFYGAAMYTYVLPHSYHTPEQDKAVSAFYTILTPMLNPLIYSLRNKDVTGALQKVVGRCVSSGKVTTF

Columns and labels:
Details in all cases: stereoisomer not certain
OR2T1 = tested on: T1, OR2T1
T1 sequence (whole entry): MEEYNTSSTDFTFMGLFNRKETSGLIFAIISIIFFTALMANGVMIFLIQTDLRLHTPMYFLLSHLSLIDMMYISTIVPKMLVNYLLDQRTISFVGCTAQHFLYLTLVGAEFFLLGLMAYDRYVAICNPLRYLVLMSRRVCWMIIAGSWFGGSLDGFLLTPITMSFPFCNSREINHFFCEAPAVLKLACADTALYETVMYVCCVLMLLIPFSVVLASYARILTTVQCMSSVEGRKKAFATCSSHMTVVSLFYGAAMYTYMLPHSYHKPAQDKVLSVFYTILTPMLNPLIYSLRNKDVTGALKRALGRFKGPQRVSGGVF
Summary of the method: (§1)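 Transient luciferase assays in mammalian cell lines were common, though methods varied by source. The values come from published papers and their supplementary material, with extra details from the original authors when needed. Responsive refers to a measured signal the original authors judged statistically different from baseline, and non-responsive (inactive) to the remainder.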

OR2T2 = tested on: T2, OR2T2
T2 sequence (whole entry): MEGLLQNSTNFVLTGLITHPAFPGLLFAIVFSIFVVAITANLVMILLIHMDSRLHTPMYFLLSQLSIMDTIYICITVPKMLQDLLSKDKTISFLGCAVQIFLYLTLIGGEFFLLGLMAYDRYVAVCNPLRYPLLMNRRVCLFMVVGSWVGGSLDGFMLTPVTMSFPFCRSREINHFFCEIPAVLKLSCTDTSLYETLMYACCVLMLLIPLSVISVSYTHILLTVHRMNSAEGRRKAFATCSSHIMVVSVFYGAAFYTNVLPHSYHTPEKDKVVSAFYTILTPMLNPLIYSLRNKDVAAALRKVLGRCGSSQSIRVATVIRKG
Summary of the method: as §1

OR2T3 (Homo sapiens) = target: T3, OR2T3 (Homo sapiens) (UniProt Q8NH03)
T3 sequence (whole entry): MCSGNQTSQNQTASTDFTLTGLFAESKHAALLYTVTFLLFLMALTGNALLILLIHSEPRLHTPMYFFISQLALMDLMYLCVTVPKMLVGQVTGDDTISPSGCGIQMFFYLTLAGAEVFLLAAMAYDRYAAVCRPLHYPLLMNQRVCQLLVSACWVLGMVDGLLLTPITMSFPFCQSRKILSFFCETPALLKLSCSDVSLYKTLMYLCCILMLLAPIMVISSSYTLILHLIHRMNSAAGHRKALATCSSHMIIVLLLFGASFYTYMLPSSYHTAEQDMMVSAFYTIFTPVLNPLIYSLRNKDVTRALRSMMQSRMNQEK
Summary of the method: as §1

OR2T34 (Homo sapiens) = target: T4, OR2T34 (Homo sapiens) (UniProt Q8NGX1)
T4 sequence (whole entry): T3 sequence (whole entry) with Y109H, T202M, M204T, A214T, H239R, P267R
Summary of the method: as §1

OR2T4 = tested on: T5, OR2T4
T5 sequence (whole entry): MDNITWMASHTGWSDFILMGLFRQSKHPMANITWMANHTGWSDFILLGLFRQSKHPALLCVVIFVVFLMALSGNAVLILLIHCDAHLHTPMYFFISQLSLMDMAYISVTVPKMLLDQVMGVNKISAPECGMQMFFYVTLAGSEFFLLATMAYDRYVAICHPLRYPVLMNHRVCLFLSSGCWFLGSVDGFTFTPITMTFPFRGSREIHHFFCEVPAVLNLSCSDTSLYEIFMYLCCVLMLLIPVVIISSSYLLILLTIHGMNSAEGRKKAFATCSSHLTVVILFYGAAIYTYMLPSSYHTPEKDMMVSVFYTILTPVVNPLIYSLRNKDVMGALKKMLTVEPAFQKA
Summary of the method: as §1

OR2T5 = tested on: T6, OR2T5
T6 sequence (whole entry): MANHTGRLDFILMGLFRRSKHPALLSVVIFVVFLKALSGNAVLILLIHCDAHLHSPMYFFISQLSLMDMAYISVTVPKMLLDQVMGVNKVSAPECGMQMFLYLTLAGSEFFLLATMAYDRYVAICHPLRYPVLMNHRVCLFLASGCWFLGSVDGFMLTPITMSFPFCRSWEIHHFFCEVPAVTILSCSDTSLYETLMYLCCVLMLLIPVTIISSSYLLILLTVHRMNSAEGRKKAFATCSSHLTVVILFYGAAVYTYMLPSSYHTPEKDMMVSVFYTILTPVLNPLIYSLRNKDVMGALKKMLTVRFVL
Summary of the method: as §1

OR2T6 = tested on: T7, OR2T6
T7 sequence (whole entry): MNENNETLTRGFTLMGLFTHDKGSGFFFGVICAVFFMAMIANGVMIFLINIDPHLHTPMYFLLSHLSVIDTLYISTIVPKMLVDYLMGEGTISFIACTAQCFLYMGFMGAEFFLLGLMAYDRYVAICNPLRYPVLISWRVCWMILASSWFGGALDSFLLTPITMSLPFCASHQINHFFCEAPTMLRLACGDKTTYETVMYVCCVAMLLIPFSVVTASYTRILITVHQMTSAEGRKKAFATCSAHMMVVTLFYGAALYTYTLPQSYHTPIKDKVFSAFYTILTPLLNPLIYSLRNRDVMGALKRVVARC
Summary of the method: as §1

OR2T8 = tested on: T8, OR2T8
T8 sequence (whole entry): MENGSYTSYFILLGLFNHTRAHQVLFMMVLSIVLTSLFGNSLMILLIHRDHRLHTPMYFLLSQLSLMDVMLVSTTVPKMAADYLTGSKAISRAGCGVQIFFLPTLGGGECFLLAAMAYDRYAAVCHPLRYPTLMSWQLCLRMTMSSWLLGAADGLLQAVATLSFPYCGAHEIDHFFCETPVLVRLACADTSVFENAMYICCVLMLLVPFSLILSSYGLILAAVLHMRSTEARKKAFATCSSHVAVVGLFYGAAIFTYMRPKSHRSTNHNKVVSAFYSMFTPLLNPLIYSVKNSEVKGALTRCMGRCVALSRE
Summary of the method: as §1

OR2V1 = tested on: T9, OR2V1
T9 sequence (whole entry): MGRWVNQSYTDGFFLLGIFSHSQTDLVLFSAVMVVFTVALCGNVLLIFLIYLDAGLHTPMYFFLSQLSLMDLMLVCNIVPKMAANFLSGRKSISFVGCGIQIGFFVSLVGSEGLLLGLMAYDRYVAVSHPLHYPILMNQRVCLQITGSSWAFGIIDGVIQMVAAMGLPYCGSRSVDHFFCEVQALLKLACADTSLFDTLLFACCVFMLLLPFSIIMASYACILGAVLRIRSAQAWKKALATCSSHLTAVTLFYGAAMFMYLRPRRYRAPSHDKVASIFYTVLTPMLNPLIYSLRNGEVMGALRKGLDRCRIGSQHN
Summary of the method: as §1

OR2V2 = tested on: T10, OR2V2
T10 sequence (whole entry): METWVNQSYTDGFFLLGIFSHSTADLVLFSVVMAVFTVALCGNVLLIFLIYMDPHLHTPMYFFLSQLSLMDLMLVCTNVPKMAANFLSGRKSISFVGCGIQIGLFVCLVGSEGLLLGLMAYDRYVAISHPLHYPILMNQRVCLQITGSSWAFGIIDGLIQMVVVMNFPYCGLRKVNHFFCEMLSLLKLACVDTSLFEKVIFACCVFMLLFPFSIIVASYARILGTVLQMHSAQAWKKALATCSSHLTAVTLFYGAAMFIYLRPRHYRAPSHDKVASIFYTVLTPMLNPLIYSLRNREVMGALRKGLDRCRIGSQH
Summary of the method: as §1

OR2W1 (Homo sapiens) = target: T11, OR2W1 (Homo sapiens) (UniProt Q9Y3N9)
T11 sequence (whole entry): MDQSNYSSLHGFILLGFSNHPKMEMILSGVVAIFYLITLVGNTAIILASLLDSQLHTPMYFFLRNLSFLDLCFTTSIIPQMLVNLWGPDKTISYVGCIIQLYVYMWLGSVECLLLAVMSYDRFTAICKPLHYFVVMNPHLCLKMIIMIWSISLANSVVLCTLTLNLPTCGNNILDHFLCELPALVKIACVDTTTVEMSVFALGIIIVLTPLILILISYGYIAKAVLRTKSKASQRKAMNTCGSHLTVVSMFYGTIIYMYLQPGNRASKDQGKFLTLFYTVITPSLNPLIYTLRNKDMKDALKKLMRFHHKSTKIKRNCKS
Summary of the method: as §1

OR2T29 (Homo sapiens) = OR2T29 (Homo sapiens) (UniProt Q8NH02)
Summary of the method: as §1

OR2T35 (Homo sapiens) = OR2T35 (Homo sapiens) (UniProt Q8NGX2)
Summary of the method: as §1

OR2T4 (Homo sapiens) = target: T12, OR2T4 (Homo sapiens) (UniProt Q8NH00)
T12 sequence (whole entry): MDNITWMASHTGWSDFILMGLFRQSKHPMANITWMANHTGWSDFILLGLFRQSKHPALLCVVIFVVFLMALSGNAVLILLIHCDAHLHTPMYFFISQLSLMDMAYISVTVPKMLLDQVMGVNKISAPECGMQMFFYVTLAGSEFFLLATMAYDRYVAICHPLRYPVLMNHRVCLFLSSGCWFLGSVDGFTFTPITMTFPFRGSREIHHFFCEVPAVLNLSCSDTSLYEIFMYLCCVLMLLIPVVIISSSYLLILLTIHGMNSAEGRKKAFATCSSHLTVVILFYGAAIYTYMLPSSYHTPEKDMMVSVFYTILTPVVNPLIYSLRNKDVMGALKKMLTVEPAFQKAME
Summary of the method: as §1

OR2T5 (Homo sapiens) = OR2T5 (Homo sapiens) (UniProt Q6IEZ7)
Summary of the method: as §1

OR2T6 (Homo sapiens) = OR2T6 (Homo sapiens) (UniProt Q8NHC8)
Summary of the method: as §1

OR2T7 (Homo sapiens) = OR2T7 (Homo sapiens) (UniProt P0C7T2)
Summary of the method: as §1

OR2V2 (Homo sapiens) = OR2V2 (Homo sapiens) (UniProt Q96R30)
Summary of the method: as §1
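Note: active if original authors judged signal statistically different from baseline.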

Structure (SMILES) | odorant receptor agonist call (OR2T1) | odorant receptor agonist call (OR2T2) | odorant receptor agonist call (OR2T3 (Homo sapiens)) | odorant receptor agonist call (OR2T34 (Homo sapiens)) | odorant receptor agonist call (OR2T4) | odorant receptor agonist call (OR2T5) | odorant receptor agonist call (OR2T6) | odorant receptor agonist call (OR2T8) | odorant receptor agonist call (OR2V1) | odorant receptor agonist call (OR2V2) | odorant receptor agonist call (OR2W1 (Homo sapiens)) | odorant receptor agonist call (OR2T29 (Homo sapiens)) | odorant receptor agonist call (OR2T35 (Homo sapiens)) | odorant receptor agonist call (OR2T4 (Homo sapiens)) | odorant receptor agonist call (OR2T5 (Homo sapiens)) | odorant receptor agonist call (OR2T6 (Homo sapiens)) | odorant receptor agonist call (OR2T7 (Homo sapiens)) | odorant receptor agonist call (OR2V2 (Homo sapiens))
O=C1CCCCCCCCCCCCCCO1 | inactive | inactive | inactive | inactive | inactive | inactive | inactive | inactive | inactive | inactive | inactive |  |  |  |  |  |  | 
COc1cc(C)ccc1O | inactive | inactive | inactive |  | inactive | inactive | inactive | inactive | inactive | inactive |  |  |  |  |  |  |  | 
CC12C=CCC1C1CCC3CC(=O)CCC3(C)C1CC2 (stereo not given) | inactive | inactive | inactive | inactive | inactive | inactive | inactive | inactive | inactive | inactive | inactive | inactive | inactive | inactive | inactive | inactive | inactive | inactive
C=CC(C)(O)CCC=C(C)C (stereo not given) | inactive | inactive | inactive | inactive | inactive | inactive | inactive | inactive | inactive | inactive | active |  |  | inactive |  |  |  | 
CCCCCCCCCCC=O | inactive | inactive | inactive |  | inactive | inactive | inactive | inactive | inactive | inactive | active |  |  | active |  |  |  | 
CCCCCCCOC(C)=O | inactive | inactive | inactive |  | inactive | inactive | inactive | inactive | inactive | inactive | active |  |  |  |  |  |  | 
C=CCc1ccc(OC(C)=O)c(OC)c1 | inactive | active | inactive | inactive | inactive | inactive | inactive | active | active | inactive | active |  |  |  |  |  |  | 
CC(=O)OC(C)(C)C1CC=C(C)CC1 (stereo not given) | inactive | inactive | inactive | inactive | inactive | inactive | inactive | inactive | inactive | inactive | inactive |  |  |  |  |  |  | 
CC(=O)OC1CC2CCC1(C)C2(C)C (stereo not given) | inactive | inactive | inactive | inactive | inactive | inactive | inactive | inactive | inactive | inactive | inactive |  |  |  |  |  |  | 
CC(C)=CCCC(C)=CC=O | inactive | inactive | inactive |  | inactive | inactive | inactive | inactive | inactive | inactive | inactive |  |  |  |  |  |  | 
CCCCCC(=O)O | inactive | inactive | inactive |  | inactive | inactive | inactive | inactive | inactive | inactive | inactive |  |  | inactive |  |  |  | 

Only odorant receptor agonist call (OR2T5), odorant receptor agonist call (OR2T2) and odorant receptor agonist call (OR2T3 (Homo sapiens)), for 2 of the compounds above:
Structure (SMILES)	odorant receptor agonist call (OR2T5)	odorant receptor agonist call (OR2T2)	odorant receptor agonist call (OR2T3 (Homo sapiens))
CC(C)=CCCC(C)=CC=O	inactive	inactive	inactive
CCCCCC(=O)O	inactive	inactive	inactive
